At least one compound was matched to its structure with a doubt left.
Test system: TNF release by human blood monocytes
Type: cell-based
Conditions: 40 μM, mean of 5 subjects
Protocol: Human monocytes were isolated from the blood of asthmatic patients by Ficoll-paque density gradient, let to adhere to tissue culture plates and stimulated with LPS (100 ng/ml) for 18 hours at 37° C. with or without increasing concentrations of nicotine. The release of TNF, a potent pro-inflammatory mediator, was measured in the cell culture supernatant by the ELISA method. Results are expressed as a percentage release from LPS-stimulated untreated cells (FIG. 28).
Tumor necrosis factor (TNF) is a mediator released in inflammatory states.
Human blood monocytes were isolated by Ficoll-paque density gradient, let to adhere to tissue culture plates and stimulated with LPS (100 ng/ml) for 18 hours at 37° C. with or without increasing concentrations of nicotine analogues.

Question: With `C[C@@H]1C[C@H]2[C@@H]3CCC4=CC(=O)C=C[C@]4(C)[C@@]3(F)[C@@H](O)C[C@]2(C)[C@@]1(O)C(=O)CO` [dexamethasone] as the molecule, how does the TNF release read?
Answer: inhibits TNF release

Source: US8557804B2, “Nicotinic receptor agonists for the treatment of inflammatory diseases” (priority 2002, dated 2013)
